Results are given in words; binding and its absence hold for the method and conditions named. In cells and extracts the contact can be indirect. Tags and fused reporters may be left off the sequences shown.
Legend:
FLAG-tagged TIA1 [1] = target: T1, FLAG-tagged TIA1 (UniProt P31483); assay: co-IP; as a1 but with omission of RNase A: FLAG-tagged bait precipitated on anti-FLAG M2 agarose from lysate (NaCl 100 mM), 4°C for 3 hours; cells unstressed or treated with arsenite; western blot
T1 sequence: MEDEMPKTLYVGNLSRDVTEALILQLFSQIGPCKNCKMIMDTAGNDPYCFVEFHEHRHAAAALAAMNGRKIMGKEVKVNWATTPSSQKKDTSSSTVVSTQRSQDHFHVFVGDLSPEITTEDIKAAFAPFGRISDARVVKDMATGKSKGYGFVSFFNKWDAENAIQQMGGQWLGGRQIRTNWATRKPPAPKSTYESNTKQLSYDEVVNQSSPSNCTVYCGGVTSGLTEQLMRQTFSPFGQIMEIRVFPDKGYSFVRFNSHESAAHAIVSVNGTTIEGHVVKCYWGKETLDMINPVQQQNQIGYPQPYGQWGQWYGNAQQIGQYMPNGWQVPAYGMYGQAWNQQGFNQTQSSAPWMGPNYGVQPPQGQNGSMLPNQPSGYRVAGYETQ

Amino acid sequences for entries named in this document (tags omitted).
UniProt Q01844: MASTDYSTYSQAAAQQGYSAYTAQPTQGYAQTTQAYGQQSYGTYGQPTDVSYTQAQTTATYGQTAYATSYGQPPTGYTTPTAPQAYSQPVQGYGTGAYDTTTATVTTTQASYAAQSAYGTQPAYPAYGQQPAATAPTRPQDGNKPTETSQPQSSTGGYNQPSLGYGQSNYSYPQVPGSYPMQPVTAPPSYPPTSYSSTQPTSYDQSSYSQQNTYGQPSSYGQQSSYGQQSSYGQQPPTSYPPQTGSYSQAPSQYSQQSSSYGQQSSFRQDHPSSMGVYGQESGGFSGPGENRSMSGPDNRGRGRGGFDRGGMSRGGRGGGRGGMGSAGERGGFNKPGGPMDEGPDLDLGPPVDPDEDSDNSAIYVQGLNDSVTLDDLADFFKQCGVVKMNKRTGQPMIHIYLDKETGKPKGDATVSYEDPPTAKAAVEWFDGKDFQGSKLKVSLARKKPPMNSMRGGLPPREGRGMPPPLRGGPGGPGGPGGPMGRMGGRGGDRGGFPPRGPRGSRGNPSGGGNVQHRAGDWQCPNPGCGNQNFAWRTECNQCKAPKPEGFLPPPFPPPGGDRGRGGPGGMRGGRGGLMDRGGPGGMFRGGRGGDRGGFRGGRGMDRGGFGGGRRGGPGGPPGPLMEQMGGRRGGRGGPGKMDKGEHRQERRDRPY
UniProt P35637: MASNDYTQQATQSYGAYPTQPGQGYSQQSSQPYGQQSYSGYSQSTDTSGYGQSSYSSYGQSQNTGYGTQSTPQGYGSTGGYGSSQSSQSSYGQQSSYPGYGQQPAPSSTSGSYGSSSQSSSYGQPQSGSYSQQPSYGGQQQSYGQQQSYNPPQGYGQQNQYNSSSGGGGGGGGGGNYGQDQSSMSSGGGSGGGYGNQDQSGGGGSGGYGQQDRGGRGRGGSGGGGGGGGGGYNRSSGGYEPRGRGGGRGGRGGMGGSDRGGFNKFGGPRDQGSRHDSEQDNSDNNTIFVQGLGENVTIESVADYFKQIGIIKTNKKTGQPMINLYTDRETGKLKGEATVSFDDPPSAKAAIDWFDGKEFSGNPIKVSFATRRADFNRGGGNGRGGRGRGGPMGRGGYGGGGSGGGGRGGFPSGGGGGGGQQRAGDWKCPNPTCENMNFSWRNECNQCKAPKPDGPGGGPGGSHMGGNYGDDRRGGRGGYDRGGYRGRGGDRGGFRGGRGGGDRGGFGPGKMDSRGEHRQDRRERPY

FLAG-tagged TIAR [2] = target: T2, FLAG-tagged TIAR (UniProt Q01085); assay: as above
T2 sequence: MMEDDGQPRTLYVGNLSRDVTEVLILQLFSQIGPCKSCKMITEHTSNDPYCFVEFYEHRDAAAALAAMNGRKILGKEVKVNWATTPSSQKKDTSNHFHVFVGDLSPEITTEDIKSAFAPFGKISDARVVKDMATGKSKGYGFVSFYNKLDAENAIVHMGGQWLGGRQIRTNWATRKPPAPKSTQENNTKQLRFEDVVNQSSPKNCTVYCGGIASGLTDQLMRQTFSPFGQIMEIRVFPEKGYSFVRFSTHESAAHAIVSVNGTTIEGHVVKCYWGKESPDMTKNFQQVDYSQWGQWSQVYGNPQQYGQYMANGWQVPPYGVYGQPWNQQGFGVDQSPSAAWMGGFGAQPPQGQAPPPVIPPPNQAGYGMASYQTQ

FLAG-tagged TIA1 [3] = target: T1, FLAG-tagged TIA1; assay: co-IP; FLAG-tagged bait precipitated on anti-FLAG M2 agarose from lysate (hypotonic lysis buffer, NaCl re-adjusted to 100 mM), RNase A added, 4°C for 3 hours, 8 washes in NET-2 buffer with FLAG-peptide; cells unstressed or treated with arsenite; western blot
FLAG-tagged TIAR [4] = target: T2, FLAG-tagged TIAR; assay: as above

binding (FLAG-tagged TIA1 [1]) | binding (FLAG-tagged TIAR [2]) | binding (FLAG-tagged TIA1 [3]) | binding (FLAG-tagged TIAR [4]) | Substance
no binding | no binding | no binding | no binding | EWS (Ewing sarcoma breakpoint 1) (from UniProt Q01844 1-656)
 | no binding |  | no binding | FUS (fused in sarcoma) (from UniProt P35637 1-526)
